Source: patent publication US20230285570A1, “THERAPEUTICALLY USEFUL CURE-PRO MOLECULES FOR E3 LIGASE MEDIATED DEGRADATION OF PROTEINS, AND METHODS OF MAKING AND USING THEM” (CORNELL UNIVERSITY, priority 2020, published 2023)
Some results were stated once for a whole list of compounds, not compound by compound.

Target: BRD4 (Homo sapiens, UniProt O60885)
Assay: CURE-PRO-mediated BRD4 degradation in HeLa cells, Western blot
Format: cell-based
Parameters: endogenous in cells; host or cells: HeLa
Conditions: 1:1 with CRBN ligand 8047, HeLa, 24 h, 1 nM-1 μM each
Procedure: All cell lines were purchased from ATCC or DSMZ and grown at 37° C. with 5% CO2. Human HeLa cells were cultured in complete growth medium (Dulbecco's modified Eagle's medium (DMEM) supplemented with 10% FBS); MCF7 cells were cultured in complete growth medium (Dulbecco's modified Eagle's medium (DMEM) supplemented with 10% FBS and 0.01 mg/ml human recombinant insulin (Sigma Aldrich); Namalwa and Ramos cells were cultured in complete growth medium (RPMI 1640 medium supplemented with 10% FBS); HCT116 and HT29 cells were cultured in complete growth medium (McCoy's 5a Medium supplemented with 10% FBS). For cellular degradation of BRD4 studies cells were seeded in a 12-well plate at 70-80% confluency, allowed to attach overnight, and incubated with the indicated compounds for the indicated time. When indicated, a 15-minute pretreatment with 10 μM pomalidomide, 10 μM VHL298, 10 μM Nutlin3a, 1 μM MG-132 or 1 μM Carfilzomib was performed before the addition of CURE-PROs. For washout studies, after CURE-PRO treatment, media was aspirated and incubated with complete medium for the indicated time before lysis.
Namalwa, Ramosm HeLa, MCF7, or HT29 HCT116 cells (2.5-3×10^6) were treated for 24 hours with the indicated compounds solubilized in DMSO. The cells were washed in ice-cold PBS and were then lysed in RIPA lysis buffer (150 mM NaCl, 5 mM EDTA, 1% NP-40, 0.5% sodium deoxycholate, 0.1% SDS, 50 mM Tris, pH 8.0.) with Roche protease inhibitor complete cocktail and phosphatase inhibitors (10 mM sodium fluoride, 10 mM sodium pyrophosphate, 1 mM sodium orthovanadate and 20 mM β-glycerophosphate). The total protein concentrations were determined by Bradford Protein Assay (Pierce) and 10-20 μg of protein was loaded onto 4-15% Tris-Glycine gradient gels (Biorad). After standard gel electrophoresis, the separated proteins were transferred to PVDF membrane by wet transfer. […] Signal was detected with ECL Western Blotting Substrate (Pierce) and X-ray film processed with a Konica SRX-101 X-ray film processor or captured by Bio-Rad's Chemidoc Imaging system. […]

| Compound | concentration from which BRD4 degradation is observed [nM] |
| --- | --- |
| COc1ccc2c(c1)C(c1ccc(Cl)cc1)=N[C@@H](CC(=O)NCCNC(=O)/C=C/c1cccc(B(O)O)c1)c1nnc(C)n1-2 [BRD-E30, (3-((E)-3-((2-(2-((4S)-6-(4-chlorophenyl)-8-methoxy-1-methyl-4H-benzo[f][1,2,4]triazolo[4,3-a][1,4]diazepin-4-yl)acetamido)ethyl)amino)-3-oxoprop-1-en-1-yl)phenyl)boronic acid] | ≥ 100 |
| CCNC(=O)C[C@@H]1N=C(c2ccc(Cl)cc2)c2cc(OCCCCCCNC(=O)c3ccc(B(O)O)cc3)ccc2-n2c(C)nnc21 [BRD-E79, (4-((6-(((4S)-6-(4-chlorophenyl)-4-(2-(ethylamino)-2-oxoethyl)-1-methyl-4H-benzo[f][1,2,4]triazolo[4,3-a][1,4]diazepin-8-yl)oxy)hexyl)carbamoyl)phenyl)boronic acid] | ≥ 100 |
| CCNC(=O)C[C@@H]1N=C(c2ccc(Cl)cc2)c2cc(-c3cccc(B(O)O)c3)ccc2-n2c(C)nnc21 [BRD-E72, (3-((4S)-6-(4-chlorophenyl)-4-(2-(ethylamino)-2-oxoethyl)-1-methyl-4H-benzo[f][1,2,4]triazolo[4,3-a][1,4]diazepin-8-yl)phenyl)boronic acid] | ≥ 100 |
